From patent US5432261A, “Motlin-like polypeptide and use thereof” (priority 1989, dated 1995)
At least one peptide structure holds a part that was inferred or is arguable (an end, a ring closure or a residue). Ends that are not written are not given here.

System: upper small intestine
Experiment: Contraction activity of upper small intestine by Balloon method using an unconscious dog, ED50 compared with [Leu13]-motilin (Test Example 4)
Type: in vivo
Settings: 2.0 μg/kg/hr, from ED50, control sample [Leu13]-motilin = 100%

## FVPIFTYGELQRLQEKERNKGQ [Control Sample, [Leu^13]-motilin, reference compound]
  Activity (%): 100%
